# Binding screen against folded nucleic acids

Source: the ROBIN nucleic acid binder screens (doi:10.1002/anie.202211358).

Targets, with sequences 5′ to 3′:
SAM-II: SAM-II riboswitch RNA pseudoknot, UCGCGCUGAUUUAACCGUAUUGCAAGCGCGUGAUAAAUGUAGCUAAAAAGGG. About 21,000 compounds screened, about 200 hits.
TPP: TPP riboswitch RNA three-way junction, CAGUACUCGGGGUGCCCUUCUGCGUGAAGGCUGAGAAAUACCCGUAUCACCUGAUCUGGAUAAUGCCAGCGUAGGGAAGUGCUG. About 24,000 compounds screened, about 160 hits.
PreQ1: PreQ1 riboswitch RNA pseudoknot, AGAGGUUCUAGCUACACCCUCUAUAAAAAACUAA. From B. subtilis. About 24,000 compounds screened, about 170 hits.

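Compounds were printed on reactive glass slides in duplicate spots, a dye-labelled oligonucleotide was laid over them, and the fluorescence left after washing was read. For the PreQ1, TPP and SAM-II riboswitches the laboratory earlier reported (doi:10.1038/s41467-019-09493-3) 1 µM RNA, 2 h, and a rule that included a mean Z-score above 3 (spot signal-to-noise against the whole library), a score well above that on a control array, and duplicate spots agreeing (coefficient of variation under 100). The data file gives only the calls; its cut-offs may differ, and compounds hitting several targets are kept. A missing hit is not proof of no binding, and a hit is not a measured affinity.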
A compound is marked hit if it was called a hit and none if it was screened but was not.
Compounds were drawn at random from those tested, without regard to their results.
A target missing from an entry has no call listed here.
A dash means that no call is listed here.

compound	SAM-II	TPP	PreQ1
Oc1ccccc1-c1nnco1	none	none	none
CC(c1ccccc1-n1cccn1)n1cnc2sc3c(c2c1=O)CCNC3 (centres undefined)	none	none	none
Cc1cc(Nc2nc(N[C@@H](C)c3ncc(F)cn3)ncc2Cl)n[nH]1	none	none	none
O=C(c1ccc(-c2ccn[nH]2)cc1)N1CCC(C(O)c2ccccn2)CC1 (centres undefined)	none	none	none
NCCn1cc(C(=O)N2CCCC(CCc3ccc(F)cc3)C2)nn1 (centres undefined)	none	none	none
Oc1ccc2ccccc2c1/N=N/c1nccs1	none	none	none
CC(O)c1cccc(N2CCN(c3nc4ccccc4s3)CC2)n1 (centres undefined)	none	none	none
CCOC(=O)c1cnc(Nc2nc3ccccc3o2)nc1C	none	none	none
CC(=O)c1cccc(NC(=O)C(Sc2nc(N)n[nH]2)c2ccccc2)c1 (centres undefined)	none	none	none
Cc1cn(CC(=O)N[C@H]2CC[C@H]2NC2CCCCC2)c(=O)[nH]c1=O	none	none	none
CCOc1ccc(C2C(C(C)=O)=C(O)C(=O)N2CCO)cc1 (centres undefined)	none	none	none
CCn1nc(CO)c2c1CCN(c1cc(C3CCNCC3)nc(C)n1)C2	none	none	none
COc1ccc(C=CCN2CCN(Cc3ccccc3)CC(O)C2)cc1 (centres undefined)	none	none	none
CN(C)c1nc(N)nc(CNC(=O)CC2CCc3ccccc32)n1 (centres undefined)	none	none	none
CCN(CC)CCNC(=O)C(Cl)=C1C(Cl)=C(Cl)C(Cl)=C1Cl	none	none	none
Nc1ccccc1C(=O)NN=c1c2ccccc2oc2ccccc12	none	none	none
Cn1c(SCC(=O)N2CCc3ccccc32)nnc1-c1ccc(N)cc1	none	none	none
Nc1cc(C(F)(F)F)ccc1Oc1ccc(Cl)c(Cl)c1	none	none	none
COc1ccccc1OCC(O)COC(N)=O (centres undefined)	none	none	none
CC(C)(C)C1CCC(OCC(O)CN2CCCC2)CC1.Cl (centres undefined)	none	none	none
CCn1cnc2cc(NCc3ccc(Br)cc3)ccc21	none	none	none
CC(c1cc(-c2ccccc2)[nH]n1)N(C)C(=O)c1cn(CCN)nn1 (centres undefined)	hit	none	none
COc1ccc(C2C(C#N)=C(N)Oc3c2ccc2ccccc32)cc1 (centres undefined)	none	none	none
COc1ccc(CNCCC2(c3ccccc3)CCOC(C(C)C)C2)cc1OC (centres undefined)	none	none	none
Cc1ccc(C)c(Nc2c(-c3cccs3)nc3ncccn23)c1	none	none	none
c1ccc2c(c1)nc(Nc1ccc(N3CCOCC3)cc1)n1cnnc21	none	none	none
NC1=C(c2nc3ccccc3s2)C(=O)CN1Cc1ccccc1	none	none	none
Nc1[nH]nc(C(=O)N2CCN3C(=O)CNC(=O)C3C2)c1-c1ccccc1 (centres undefined)	none	none	none
COC(=O)CCc1sc(NC2CCCCC2)nc1-c1ccc(OC)cc1	-	none	none
Cc1cc(N2CCCN([C@H]3COC[C@@H]3O)CC2)nc(-c2ccccc2O)n1	none	none	none
Cc1ccc2cc(-c3noc(C)n3)c(NC(C)c3ccccn3)nc2c1 (centres undefined)	-	none	none
C=CCNc1ccccc1C(=O)NCc1nncn1C1CCCCC1	none	none	none
CCCc1nc2nc(C)cc(NCCc3ccc(Cl)cc3)n2n1	none	none	none
Cn1nc(CN2CCCCC(N)C2)c2c(Cl)cccc21 (centres undefined)	none	none	none
N[C@H]1c2ccccc2C[C@@H]1NC(=O)C1(c2ccc(F)cc2)CC1	none	none	none
Cc1ccc(-c2ccc(CN3C[C@@H](CN4CCN(C)CC4)[C@@H](CO)C3)o2)cc1	none	none	none
NCCc1ccc(CN2CCC(O)(c3cccc(C(F)(F)F)c3)CC2)cc1	hit	none	none
COc1ccc(-c2nc3c([nH]2)CCN(C(=O)c2cnc(N)nc2C)C3)cc1	none	none	none
O=C(CCN1CCCCCC1=O)N[C@H]1CN(CCCO)C[C@@H]1C1CC1	none	none	none
O=C(NCc1cc2n(n1)CCCNC2)c1cc2c(s1)CCCCC2	none	none	none
Cc1cccc(CN2c3ccccc3C3=C(C(c4ccc(Cl)cc4)C(C#N)=C(N)O3)S2(=O)=O)c1 (centres undefined)	-	none	none
CCOC(=O)c1cnc2c(C)cc(C)cc2c1Nc1ccc(F)cc1	none	none	none
CCCCSc1nc(N)cc(N2C[C@H]3C[C@H](O)[C@@H](O)C[C@H]3C2)n1	none	none	none
O=S(=O)(N1CCOCC1)N1CCC2(CC1)OCCCC2O (centres undefined)	none	none	none
Cc1c(NC(=O)c2ccco2)cccc1C(=O)N[C@@H]1CC[C@@H](N)C1	none	none	none
Cc1cc2n(n1)SC(Nc1ccccc1)N2 (centres undefined)	none	none	none
N#Cc1c(-c2ccc(C#CCCO)cc2)cc(-c2cc[nH]c2)nc1N	none	none	none
CC(C)OCCCN1CC(=O)C(c2nc3ccccc3[nH]2)=C1N	-	none	none
CCNCC(O)CNC(C)(C)C.Cl.Cl (centres undefined)	none	none	none
Cn1c([N+](=O)[O-])cnc1N1CCN(c2nncs2)C1=O	none	none	none
CCn1cnnc1CCNc1cc(CN)nc(C)n1	none	none	none
NC1(C(=O)N2CC[C@@H]3[C@@H](CCC(=O)N3CCc3ccccn3)C2)CCC1	none	none	none
O=C(O)C1=NC(C(=O)O)CC(C=CN2c3cc(O)c(OC4OC(CO)C(O)C(O)C4O)cc3CC2C(=O)O)=C1 (centres undefined)	none	none	none
NS(=O)(=O)c1cc(Cl)c(Cl)c(S(N)(=O)=O)c1	none	none	none
C[C@]1(O)CCN(C(=O)c2cnc(-c3ccncc3)nc2)C[C@@H]1O	none	none	none
CCCCOC(=O)c1c(N)n(-c2ccccc2OC)c2nc3ccccc3nc12	none	none	none

Some entries from above, unchanged:

{"compound": "COc1ccc(CNCCC2(c3ccccc3)CCOC(C(C)C)C2)cc1OC", "stereo": "centres undefined", "SAM-II": "none", "TPP": "none", "PreQ1": "none"}
{"compound": "Cc1cc(Nc2nc(N[C@@H](C)c3ncc(F)cn3)ncc2Cl)n[nH]1", "SAM-II": "none", "TPP": "none", "PreQ1": "none"}
{"compound": "CC(c1cc(-c2ccccc2)[nH]n1)N(C)C(=O)c1cn(CCN)nn1", "stereo": "centres undefined", "SAM-II": "hit", "TPP": "none", "PreQ1": "none"}
{"compound": "Cc1c(NC(=O)c2ccco2)cccc1C(=O)N[C@@H]1CC[C@@H](N)C1", "SAM-II": "none", "TPP": "none", "PreQ1": "none"}
{"compound": "Cc1cc(N2CCCN([C@H]3COC[C@@H]3O)CC2)nc(-c2ccccc2O)n1", "SAM-II": "none", "TPP": "none", "PreQ1": "none"}
{"compound": "Cc1cn(CC(=O)N[C@H]2CC[C@H]2NC2CCCCC2)c(=O)[nH]c1=O", "SAM-II": "none", "TPP": "none", "PreQ1": "none"}
{"compound": "CCNCC(O)CNC(C)(C)C.Cl.Cl", "stereo": "centres undefined", "SAM-II": "none", "TPP": "none", "PreQ1": "none"}